Results published in PubChem BioAssay AID529 (NMMLSC, 2006).
Out of some 24,000 compounds screened, about 50 (0.2%) were called active. Inconclusive results, whose numbers are uncertain, are shown with a selection of clear calls.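 How the source made its calls: active means inhibition above 50%; inconclusive means compound itself fluorescent, judged against control cell fluorescence; inactive means the rest.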

Amino acid sequences for entries named in this document (tags omitted).
UniProt P13612, whole entry, looked up: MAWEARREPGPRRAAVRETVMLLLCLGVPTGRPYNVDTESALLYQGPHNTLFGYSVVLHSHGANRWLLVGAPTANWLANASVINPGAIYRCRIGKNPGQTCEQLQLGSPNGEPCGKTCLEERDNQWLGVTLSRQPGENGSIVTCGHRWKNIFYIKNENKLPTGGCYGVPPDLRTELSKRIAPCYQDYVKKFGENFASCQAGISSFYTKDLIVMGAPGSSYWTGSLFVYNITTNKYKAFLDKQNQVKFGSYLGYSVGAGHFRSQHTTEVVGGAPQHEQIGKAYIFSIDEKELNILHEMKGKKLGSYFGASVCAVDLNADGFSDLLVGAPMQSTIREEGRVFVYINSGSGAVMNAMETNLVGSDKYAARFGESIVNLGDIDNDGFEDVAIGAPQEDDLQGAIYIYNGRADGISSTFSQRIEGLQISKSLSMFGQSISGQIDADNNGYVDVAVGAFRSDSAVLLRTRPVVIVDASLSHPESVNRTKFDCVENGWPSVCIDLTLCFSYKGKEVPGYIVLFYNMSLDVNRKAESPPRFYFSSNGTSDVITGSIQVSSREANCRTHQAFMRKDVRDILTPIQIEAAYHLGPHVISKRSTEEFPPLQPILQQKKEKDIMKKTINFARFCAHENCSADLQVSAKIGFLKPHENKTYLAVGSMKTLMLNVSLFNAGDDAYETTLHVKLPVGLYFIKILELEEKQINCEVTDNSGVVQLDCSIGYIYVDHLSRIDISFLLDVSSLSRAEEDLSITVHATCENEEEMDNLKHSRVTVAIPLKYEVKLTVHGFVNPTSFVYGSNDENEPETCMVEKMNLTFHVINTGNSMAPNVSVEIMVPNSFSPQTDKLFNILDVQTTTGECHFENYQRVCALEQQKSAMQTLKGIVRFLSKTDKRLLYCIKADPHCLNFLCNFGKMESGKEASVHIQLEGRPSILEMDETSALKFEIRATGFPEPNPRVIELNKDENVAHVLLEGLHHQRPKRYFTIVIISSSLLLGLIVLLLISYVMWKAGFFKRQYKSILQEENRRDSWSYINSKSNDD

Target: Integrin alpha-4 (Homo sapiens) (UniProt P13612)
Assay: blockers of LDV-FITC ligand binding on VLA-4 – Jurkat cells, Mn2+ activated, primary screen (AID 529);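 on inhibition: 0% = Mn2+ stimulated cells lacking compound and 100% = ligand binding without Mn2+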
Details: LDV-FITC binding with Mn2+, flow cytometry; stronger effect = higher value, concentration not given here

Structure (SMILES) | inhibition
Cc1ccc2c(c1)[C@@H]1CN(C)CC[C@@H]1N2C(=O)Nc1cccc(C(F)(F)F)c1 | inactive: -8.5%
C1=C(c2c[nH]c3ccccc23)CCNC1 | inconclusive
CCC1(CC)C(=O)NC(=NCCc2c[nH]c3ccccc23)NC1=O | inconclusive
O=P(O)(O)Cc1ccccc1OP(=O)(c1ccccc1)c1ccccc1 | inconclusive
Cc1cnn(C2CCN(C)CC2)c1N | inconclusive
O=C(c1cc(-c2cccnc2)nc2ccccc12)N1CCC2(CC1)OCCO2 | inactive: -12%
O=C(NCC(c1cccnc1)N1CCN(c2ccccc2F)CC1)Oc1ccccc1 (stereo not drawn) | inconclusive
Cc1ccc(Cl)cc1N1CCN(CCN)CC1 | inconclusive
CC(C)OCCCNC(=O)c1c(N)n(CC2CCCO2)c2nc3ccccc3nc12 (stereo not drawn) | inconclusive
CCOC(=O)N(c1ccccc1)P1(=S)OCC(C)O1 (stereo not drawn) | inconclusive
COC(=O)c1cncn1C(C)c1ccccc1 (stereo not drawn) | inconclusive
O=C(NCc1ccc(C(=O)N2CCC3(CC2)OCCO3)cc1)c1ccc2c(c1)OCO2 | inconclusive
O=C(c1cc(-c2ccncc2)nc2ccccc12)N1CCC2(CC1)OCCO2 | inconclusive
O=c1c2ccccc2[nH]c(=S)n1-c1ccc2c(c1)OCO2 | inconclusive
CN(C)c1cc(N)c2c(n1)CCC2 (tested in a mixture with another compound) | inactive: -12%
CC(N)Cc1c[nH]c2cc3c(cc12)OCCO3 (stereo not drawn) | inconclusive
O=C(C1CCCN(c2nnc(-n3cccc3)s2)C1)N1CCC2(CC1)OCCO2 (stereo not drawn) | inconclusive
O=C(CN1CC(c2ccccc2)CC1=O)NCc1ccc(F)cc1 (stereo not drawn) | inconclusive
CC1=C(C(=O)OC(C)C)[C@]2(C(=O)N(CC(N)=O)c3ccccc32)C(C#N)=C(N)O1 | inactive: -4.5%
Cc1c2ccncc2c(C)c2c1[nH]c1ccccc12 | inconclusive
O=C(CN1CC(c2ccccc2)CC1=O)Nc1ccc(F)cc1 (stereo not drawn) | inconclusive
Cc1ccc2c(c1)C1CN(C)CCC1N2C(=O)Cn1nnc(-c2ccccc2F)n1 (stereo not drawn) | inconclusive

In the list so far, 3 have sulfur.
Structure (SMILES) | inhibition
CCOC(=O)N(c1ccccc1)P1(=S)OCC(C)O1 (stereo not drawn) | inconclusive
O=c1c2ccccc2[nH]c(=S)n1-c1ccc2c(c1)OCO2 | inconclusive
O=C(C1CCCN(c2nnc(-n3cccc3)s2)C1)N1CCC2(CC1)OCCO2 (stereo not drawn) | inconclusive

The results go on:

Structure (SMILES) | inhibition
Cc1nn(-c2ccccc2)c2c1CC1(C(=O)N(C)C(=O)N(C)C1=O)C1CCCCN21 (stereo not drawn) | inconclusive
CCOc1cc2[nH]c(=S)n(CCCC(=O)N3CCC4(CC3)OCCO4)c(=O)c2cc1OCC | inconclusive
Cn1ncnc2c(=O)n(C)c(=O)nc1-2 | inconclusive
Cc1[nH]c2ccccc2c1C1=CCNCC1 | inconclusive
Cc1c(C(=O)N2CCC3(CC2)OCCO3)sc2ncnc(N3CCN(c4ccccn4)CC3)c12 | inactive: 6%
CC1CCCCN1CC(=O)c1ccc2cc[nH]c2c1 (stereo not drawn) | inconclusive
O=C1C2CCCN2C(c2cccnc2)N1c1nccs1 (stereo not drawn) | inactive: 13%
CN1CCN(c2c[nH]c(=O)[nH]c2=O)CC1 | inactive: -2%
Cc1nc2c(-c3ccc(F)cc3)c(C)nn2c(C)c1CCC(=O)N1CCC2(CC1)OCCO2 | inconclusive
Nc1ccc(C2(c3ccc(N)cc3)CN3CCC2CC3)cc1 | inconclusive
O=C1C2CCCN2C(c2cccnc2)N1c1ccc(Cl)cc1 (stereo not drawn) | inconclusive
Cc1cc(C)n2nc(SC(C)C(=O)N3CCC4(CC3)OCCO4)nc2n1 (stereo not drawn) | inactive: 1.5%
O=C(c1ccccc1)c1cn(CC(=O)N2CCCC2)c2ccccc12 | inconclusive
Cc1nc2cc(-c3ccccc3)nn2c(C)c1CCC(=O)N1CCC2(CC1)OCCO2 | inconclusive
O=c1c2ccccc2[se]n1-c1ccccc1 | inactive: -68%
CC1(C)CN=C(Nc2ccccc2C(F)(F)F)S1 | inconclusive
CC(C)[C@H]1C(=O)N2CCC[C@H]2[C@]2(O)O[C@](NC(=O)[C@@H]3C=C4c5cccc6[nH]cc(c56)C[C@H]4N(C)C3)(C(C)C)C(=O)N12 | inconclusive
Cc1ccccc1-c1nc(CS(=O)CC(=O)N2CCC3(CC2)OCCO3)c(C)o1 (stereo not drawn) | inactive: -5%
CCn1nc(-c2ccccc2)nc2c(=O)n(C)c(=O)nc1-2 | inconclusive
O=C(c1cc2cc3ccc(Cl)cc3nc2o1)N1CCC2(CC1)OCCO2 | inconclusive
O=C(c1cc(-c2ccccc2)nc2ccccc12)N1CCC2(CC1)OCCO2 | inconclusive
